Assay results published in paper PMC6123443, “Selective Pressure for Biofilm Formation in Bacillus subtilis: Differential Effect of Mutations in the Master Regulator SinR on Bistability” (mBio, 2018).
Construct, isoform or probe ends are uncertain for at least one entry. For some assays here: The comparison behind a weaker result is the experiment's own reference, which may not be listed here.

Tests used:
Test in all cases: fluorescence polarization, SinI displacement
[1] = biological target: SinR wild type (Bacillus subtilis) (UniProt P06533); conditions: 5 uM SinR + equimolar SinI (~85% of bound DNA released); 10 mM Tris-HCl pH 8.0, 100 mM NaCl, 1 mM EDTA; 10 nM labeled duplex, SinR diluted from 20 uM; temperature not stated; recombinant protein; label: 5'-fluorescein (FAM) on strand 1
[2] = biological target: SinR W104L (Bacillus subtilis) (UniProt P06533); conditions: 5 uM SinR + 10-fold excess SinI (~60% of bound DNA released); 10 mM Tris-HCl pH 8.0, 100 mM NaCl, 1 mM EDTA; 10 nM labeled duplex, SinR diluted from 20 uM; temperature not stated; recombinant protein; label: 5'-fluorescein (FAM) on strand 1
[3] = biological target: SinR W104R (Bacillus subtilis) (UniProt P06533); conditions: 5 uM SinR + 10-fold excess SinI (~60% of bound DNA released); 10 mM Tris-HCl pH 8.0, 100 mM NaCl, 1 mM EDTA; 10 nM labeled duplex, SinR diluted from 20 uM; temperature not stated; recombinant protein; label: 5'-fluorescein (FAM) on strand 1
[4] = biological target: SinR A85T (Bacillus subtilis) (UniProt P06533); conditions: 5 uM SinR + SinI (displacement similar to wild type); 10 mM Tris-HCl pH 8.0, 100 mM NaCl, 1 mM EDTA; 10 nM labeled duplex, SinR diluted from 20 uM; temperature not stated; recombinant protein; label: 5'-fluorescein (FAM) on strand 1
[5] = biological target: SinR S43A (Bacillus subtilis) (UniProt P06533); conditions: 5 uM SinR + equimolar or more SinI (displacement almost complete); 10 mM Tris-HCl pH 8.0, 100 mM NaCl, 1 mM EDTA; 10 nM labeled duplex, SinR diluted from 20 uM; temperature not stated; recombinant protein; label: 5'-fluorescein (FAM) on strand 1

## ATTGTTCTCTAAAGAGAACTT (double strand)
[1]
  binding signal: 15 % DNA bound
[2]
  binding signal: 40 % DNA bound
[3]
  binding signal: 40 % DNA bound
[4]
  binding result: binds more weakly
[5]
  binding result: binds more weakly
